For one substance, binding results are on record in PMC11516061.

Sequences of proteins named here, by UniProt entry; tags and fusion partners are left off.
UniProt Q9UKV5: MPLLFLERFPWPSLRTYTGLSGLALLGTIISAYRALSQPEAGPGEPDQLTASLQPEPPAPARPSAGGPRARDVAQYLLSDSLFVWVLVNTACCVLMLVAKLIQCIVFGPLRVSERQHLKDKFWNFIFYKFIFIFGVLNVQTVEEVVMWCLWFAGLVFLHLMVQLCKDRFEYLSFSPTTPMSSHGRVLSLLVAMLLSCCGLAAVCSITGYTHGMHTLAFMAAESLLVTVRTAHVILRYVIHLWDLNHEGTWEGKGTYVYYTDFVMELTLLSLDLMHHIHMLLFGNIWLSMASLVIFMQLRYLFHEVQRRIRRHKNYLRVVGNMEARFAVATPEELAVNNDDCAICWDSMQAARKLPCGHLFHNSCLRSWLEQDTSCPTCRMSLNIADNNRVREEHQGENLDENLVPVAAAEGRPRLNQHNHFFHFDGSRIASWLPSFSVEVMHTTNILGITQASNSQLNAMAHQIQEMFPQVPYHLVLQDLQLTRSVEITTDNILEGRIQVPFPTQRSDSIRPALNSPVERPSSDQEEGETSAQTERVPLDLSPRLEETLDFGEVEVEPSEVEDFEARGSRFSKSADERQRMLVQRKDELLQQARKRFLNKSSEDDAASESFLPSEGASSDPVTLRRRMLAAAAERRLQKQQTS

Results are given in words; binding and its absence hold for the method and conditions named. Binding seen in cells or lysates may run through a third protein. Here binding means that the protein was enriched with, or labelled near, the bait; the list need not be complete. Where a sequence is shown, tags or fusion partners need not be part of it.

The assay addresses T1, FLAG-tagged B7-H4 (human), stably expressed in MDA-MB-468 cells (human) (UniProt Q7Z7D3).
T1 sequence: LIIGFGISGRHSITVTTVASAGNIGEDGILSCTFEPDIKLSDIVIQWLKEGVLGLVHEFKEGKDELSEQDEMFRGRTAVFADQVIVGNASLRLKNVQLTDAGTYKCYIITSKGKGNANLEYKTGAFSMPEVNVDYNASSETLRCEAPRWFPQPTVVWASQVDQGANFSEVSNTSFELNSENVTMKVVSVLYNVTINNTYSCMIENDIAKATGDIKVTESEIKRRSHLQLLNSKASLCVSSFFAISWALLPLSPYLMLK
The assay is described as follows: affinity purification with mass spectrometry; FLAG-B7-H4 immunoprecipitated with anti-FLAG M2 agarose from MDA-MB-468 stable cells lysed in NP40 buffer (1% NP-40, 10% glycerol, 25 mmol/L Tris-HCl pH 7.9), washed with TBST, eluted with 3x FLAG peptide, SDS-PAGE, mass spectrometry; empty vector as control.

“autocrine motility factor receptor (AMFR), endogenous in MDA-MB-468 cells (from UniProt Q9UKV5 1-643) (enzyme)”: the binding entry is reported as “binds”.
